Measured values from patent US20110283604A1, “BIODEGRADATION OF RENEWABLE HYDROCARBON FUEL BLENDS” (BUTAMAX(TM) ADVANCED BIOFUELS LLC, priority 2010, published 2011).

System: soil-groundwater slurries
Experiment: Anaerobic microcosm biodegradation (nitrate-reducing to methanogenic)
Settings: for concentration after approximately 300 days of incubation: sulfate-reducing

SMILES	concentration after approximately 300 days of incubation (Treatment 13, low concentration, with isobutanol, detection limit)	concentration after approximately 300 days of incubation (Treatment 14, low concentration, with ethanol)	biodegradation throughout 162 days of incubation (higher BTEX concentration treatments without isobutanol, any anaerobic conditions)	time to degradation below detection limits (high concentration, without alcohols, nitrate-reducing, iron-reducing and sulfate-reducing conditions)	biodegradation relative to the controls (unamended high concentration microcosms (Treatment 2))
c1ccccc1 [Benzene, benzene]	< 0.50 µM	approximately 0.85 μM	no substantial benzene biodegradation	–	–
Cc1ccccc1 [Toluene, toluene]	–	–	–	≤ 80 days	no measurable toluene concentration decreasing trend
